Patent US6384045B1, “Tricyclic and tetracyclic pyrones” (Kansas State University Research Foundation, priority 1997, dated 2002)
Some entries share one result that the patent states for a list of compounds. At least one structure is not confirmed: it was looked up by name or label, or the drawing left a doubt.

Legend:
[1] = test system: L1210 lymphoblastic leukemia cells; assay: Inhibition of L1210 tumor cell growth in vitro (Coulter counter); type: cell-based, Murine; details: 50 μM, 3 and 4 days in culture
Procedure: Cells were plated at an initial density of 1×10^4 cells/0.5 ml/well in RPMI 1640 medium, containing 7.5% fortified bovine calf serum, and grown at 37° C. for 4 days in a humidified incubator in 5% CO2 in air. Cells were incubated in the presence or absence (^•, control) of 50 μM 3A (▪), 2D & 2E (□),3D & 3E (▴), 2B & 2C (Δ) 2A (♦), 3B & 3C (⋄), or 10 μM CPT (∘) and their density was monitored in triplicate every 24 h using a Coulter counter. Cells numbers are plotted on a logarithmic scale.
All solutions of tricyclic pyrone analogs were dissolved and diluted in 100% ethanol (ETOH), whereas CPT (Sigma Chemical Co., St. Louis, Mo.) solutions were prepared in 100% dimethyl sulfoxide (DMSO). […]
For tumor cell growth, L1210 cells were resuspended in fresh serum-containing RPMI 1640 medium, plated at an initial density of 1×10^4 cells/0.5 ml, and incubated in 48-well Costar cell culture plates (Costar, Cambridge, Mass.). Cells were grown for 4 days in the presence or absence of drugs and their density was monitored every 24 h using a Coulter counter (Coulter Electronics, Ltd., Luton Beds, England). Data of all in vitro experiments were analyzed using Student's t-test with the level of significance set at P<0.05.

[2] = test system: L1210 lymphoblastic leukemia cells; assay: Inhibition of DNA synthesis (3H-thymidine incorporation) in L1210 cells in vitro; type: cell-based, Murine; details: 50 μM, 90 min + 30 min pulse
Procedure: FIG. 1 illustrates a comparison of the effects of four new tricyclic pyrone derivatives and CPT on DNA synthesis in L1210 cells in vitro. About 2.53×10^6 cells suspended in 0.5 ml of RPMI 1640 medium were incubated at 37° C. for 90 minutes in the presence or absence (control) of the indicated concentrations of drugs. The cells were then pulse-labeled for an additional 30 minutes to determine the rate of ^3H-thymidine incorporation into DNA. DNA synthesis in vehicle-treated control cells was 43,956±4,569 cpm (100±11%). The blank value (1,241±99 cpm) for cells pulse-labeled for 0 minutes with 1 μCi of ^3H-thymidine has been subtracted from the results. Bars: means±SD (n=3).
All solutions of tricyclic pyrone analogs were dissolved and diluted in 100% ethanol (ETOH), whereas CPT (Sigma Chemical Co., St. Louis, Mo.) solutions were prepared in 100% dimethyl sulfoxide (DMSO). Murine L1210 lymphoblastic leukemia cells, obtained from the American Type Culture Collection (Rockville, Md.), were maintained in continuous exponential growth by twice-a-week passage in RPMI 1640 medium supplemented with 7.5% fortified bovine calf serum (HyClone Laboratories, Inc., Logan, Utah). The cultures were incubated at 37° C. in a humidified atmosphere containing 5% CO2. All drugs were supplemented to the culture medium in 1- or 2 μl aliquots. The concentration of vehicle in the final incubation volume never exceeded 0.2-0.4%. […] Control cells incubated in the absence of drugs were similarly treated with vehicle only and, in every experiment, all incubates received the same volume of solvent.
For DNA synthesis, L1210 cells were resuspended in fresh serum-free RPMI 1640 medium at a density of about 2.5×10^6 cells/0.5 ml. The cells were incubated at 37° C. for 90 min in the presence or absence of drugs and then pulse-labeled for an additional 30 min with 1 μCi of [methyl-^3H]thymidine (51 Ci/mmol; Amersham Corp., Arlington Heights, Ill.). The incubations were terminated by the addition of 0.5 ml of 10% trichloroacetic acid (TCA). After holding on ice for 15 min, the acid-insoluble material was recovered over Whatman GF/A glass microfibre filters and washed thrice with 2 ml of 5% TCA and twice with 2 ml of 100% EtOH. After drying the filters, the radioactivity bound to the acid-precipitable material was determined by liquid scintillation counting in 10 ml of Bio-Safe NA (Research Products International Corp., Mount Prospect, Ill.).

Row | Compound | inhibition of L1210 cell growth (% reduction of control cell numbers) [1] | inhibition of DNA synthesis in L1210 cells [2] | further results
1 | COc1ccc(-c2cc3c(c(=O)o2)C=C2CCCC(O)C2(C)O3)cc1OC (stereo not drawn) [3B & 3C, cis- and trans-3-(3,4-dimethoxyphenyl)-5a-methyl-6-hydroxy-1H-5a,6,7,8,9-pentahydro-1-oxopyrano[4,3-b]benzopyran] | 91-100% | 79-91% | 
2 | Cc1cc2c(c(=O)o1)C=C1CCCC(OC=O)C1(C)O2 (stereo not drawn) [1D & 1E, cis- and trans-3-5a-dimethyl-6-formyloxy-1H-5a,6,7,8,9-pentahydro-1-oxopyrano[4,3-b]benzopyran] |  | 17-32% | 
3 | CC12Oc3cc(-c4cccnc4)oc(=O)c3C=C1CCCC2OC=O (stereo not drawn) [2D & 2E, cis- and trans-3-(3-pyridyl)-5a-methyl-6-formyloxy-1H-5a,6,7,8,9-pentahydro-1-oxopyrano[4,3-b]benzopyran] |  |  | inhibition of DNA synthesis in L1210 cells ([2]; listed as 2D and 2E, 50 µM): 31-49%
4 | CC12Oc3cc(-c4cccnc4)oc(=O)c3C=C1CCCC2O (stereo not drawn) [2B & 2C, cis- and trans-3-(3-pyridyl)-5a-methyl-6-hydroxy-1H-5a,6,7,8,9-pentahydro-1-oxopyrano[4,3-b]benzopyran] |  |  | inhibition of DNA synthesis in L1210 cells ([2]; 50 µM): 17-32%; inhibition of DNA synthesis in L1210 cells ([2]; listed as 2B and 2C, 50 µM): 31-49%
5 | cis- and trans-3-(3,4-dimethoxyphenyl)-5a-methyl-6-formyloxy-1H-5a,6,7,8,9-pentahydro-1-oxopyrano[4,3-b]benzopyran [3D & 3E] | 91-100% | 79-91% | 
